Reference: PMC12750601
Results are given in words; binding and its absence hold for the method and conditions named. In cells and extracts the contact can be indirect. These calls come from enrichment with a bait or labelling near it, and not all partners need be listed.

The chains behind the UniProt entries cited, without tags or fusion partners.
UniProt Q14145: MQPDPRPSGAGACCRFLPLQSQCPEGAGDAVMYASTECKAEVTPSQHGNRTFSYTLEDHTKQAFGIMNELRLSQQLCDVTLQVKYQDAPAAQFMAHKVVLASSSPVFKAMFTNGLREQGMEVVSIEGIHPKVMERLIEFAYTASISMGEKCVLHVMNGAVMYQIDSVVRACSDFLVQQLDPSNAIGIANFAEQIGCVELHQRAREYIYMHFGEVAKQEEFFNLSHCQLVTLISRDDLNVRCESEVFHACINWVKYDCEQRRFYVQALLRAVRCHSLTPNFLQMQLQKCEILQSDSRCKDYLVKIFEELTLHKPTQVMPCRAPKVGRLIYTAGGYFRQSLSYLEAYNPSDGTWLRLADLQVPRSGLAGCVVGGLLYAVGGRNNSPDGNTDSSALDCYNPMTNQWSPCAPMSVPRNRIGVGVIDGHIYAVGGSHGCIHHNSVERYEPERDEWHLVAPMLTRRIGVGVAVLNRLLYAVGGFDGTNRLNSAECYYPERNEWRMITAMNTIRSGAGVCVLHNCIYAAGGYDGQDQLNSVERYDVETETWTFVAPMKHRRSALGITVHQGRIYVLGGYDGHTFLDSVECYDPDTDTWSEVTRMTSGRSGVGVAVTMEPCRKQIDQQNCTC

Biological target: T1, Tribbles homolog 2 (human (endogenous in HepG2)) (UniProt Q92519)
T1 sequence: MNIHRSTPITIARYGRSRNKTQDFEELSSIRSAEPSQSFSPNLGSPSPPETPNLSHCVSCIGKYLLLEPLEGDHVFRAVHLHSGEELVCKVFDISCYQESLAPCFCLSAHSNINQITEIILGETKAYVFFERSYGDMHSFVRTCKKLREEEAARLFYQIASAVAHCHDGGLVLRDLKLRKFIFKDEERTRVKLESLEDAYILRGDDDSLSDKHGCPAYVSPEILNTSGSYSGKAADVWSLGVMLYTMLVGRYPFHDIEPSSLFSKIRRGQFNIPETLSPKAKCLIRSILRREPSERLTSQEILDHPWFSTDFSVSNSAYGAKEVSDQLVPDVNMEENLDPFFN
Experiment: affinity purification with mass spectrometry; IP of TRIB2 (anti-TRIB2, protein A/G magnetic beads, overnight at 4 °C) from HepG2 lysate; KEAP1 peptides identified by mass spectrometry

Q: How did the binding turn out when KEAP1 (from UniProt Q14145 1-624) was run?
A: binds
